Data taken from the supplement of paper PMC10849652.
The list shows a part of the results.

Amino acid sequences for entries named in this document (tags omitted). A change or cut given only in a name is not applied to a line headed by its entry.
UniProt O43909: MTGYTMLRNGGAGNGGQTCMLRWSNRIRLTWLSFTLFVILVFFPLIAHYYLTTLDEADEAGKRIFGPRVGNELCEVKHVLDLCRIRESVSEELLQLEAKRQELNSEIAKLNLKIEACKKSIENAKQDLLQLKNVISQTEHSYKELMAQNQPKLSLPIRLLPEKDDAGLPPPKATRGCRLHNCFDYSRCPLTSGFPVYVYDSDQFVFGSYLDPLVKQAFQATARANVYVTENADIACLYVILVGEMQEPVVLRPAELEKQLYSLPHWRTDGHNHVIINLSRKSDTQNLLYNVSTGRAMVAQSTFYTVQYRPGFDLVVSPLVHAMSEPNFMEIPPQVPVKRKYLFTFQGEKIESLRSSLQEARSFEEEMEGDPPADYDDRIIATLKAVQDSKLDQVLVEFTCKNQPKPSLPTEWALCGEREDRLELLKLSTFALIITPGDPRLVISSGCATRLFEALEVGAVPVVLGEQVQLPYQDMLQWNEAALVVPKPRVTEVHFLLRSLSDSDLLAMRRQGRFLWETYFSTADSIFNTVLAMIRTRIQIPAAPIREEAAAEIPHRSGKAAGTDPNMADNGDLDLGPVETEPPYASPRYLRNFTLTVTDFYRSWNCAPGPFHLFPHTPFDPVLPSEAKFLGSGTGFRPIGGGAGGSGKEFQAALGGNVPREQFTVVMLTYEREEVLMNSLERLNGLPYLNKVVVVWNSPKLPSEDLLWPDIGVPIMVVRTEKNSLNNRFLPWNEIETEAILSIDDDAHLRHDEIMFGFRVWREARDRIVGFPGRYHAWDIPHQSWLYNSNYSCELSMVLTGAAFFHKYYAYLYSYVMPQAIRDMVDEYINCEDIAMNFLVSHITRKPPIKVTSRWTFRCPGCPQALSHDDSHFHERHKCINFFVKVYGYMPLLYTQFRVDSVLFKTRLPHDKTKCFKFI
UniProt P41212: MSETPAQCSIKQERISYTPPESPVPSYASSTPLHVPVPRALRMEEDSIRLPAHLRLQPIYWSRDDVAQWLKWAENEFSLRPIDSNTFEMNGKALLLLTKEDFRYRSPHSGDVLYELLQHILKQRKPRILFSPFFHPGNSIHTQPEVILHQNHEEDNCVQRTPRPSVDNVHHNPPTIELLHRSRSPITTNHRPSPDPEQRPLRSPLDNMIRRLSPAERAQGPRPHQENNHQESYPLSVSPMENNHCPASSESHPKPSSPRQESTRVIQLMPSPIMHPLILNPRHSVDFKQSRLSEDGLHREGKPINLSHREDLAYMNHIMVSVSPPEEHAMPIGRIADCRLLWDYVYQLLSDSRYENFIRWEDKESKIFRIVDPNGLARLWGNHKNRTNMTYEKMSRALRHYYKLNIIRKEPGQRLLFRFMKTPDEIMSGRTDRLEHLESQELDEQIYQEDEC
UniProt Q9GZU8: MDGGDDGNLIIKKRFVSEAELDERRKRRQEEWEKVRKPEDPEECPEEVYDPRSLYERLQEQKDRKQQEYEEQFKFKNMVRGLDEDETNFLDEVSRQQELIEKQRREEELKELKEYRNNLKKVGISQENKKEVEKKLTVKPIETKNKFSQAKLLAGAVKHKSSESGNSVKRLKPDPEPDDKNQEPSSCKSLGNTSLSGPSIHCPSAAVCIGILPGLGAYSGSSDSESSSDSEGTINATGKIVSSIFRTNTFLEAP
UniProt Q96RI0: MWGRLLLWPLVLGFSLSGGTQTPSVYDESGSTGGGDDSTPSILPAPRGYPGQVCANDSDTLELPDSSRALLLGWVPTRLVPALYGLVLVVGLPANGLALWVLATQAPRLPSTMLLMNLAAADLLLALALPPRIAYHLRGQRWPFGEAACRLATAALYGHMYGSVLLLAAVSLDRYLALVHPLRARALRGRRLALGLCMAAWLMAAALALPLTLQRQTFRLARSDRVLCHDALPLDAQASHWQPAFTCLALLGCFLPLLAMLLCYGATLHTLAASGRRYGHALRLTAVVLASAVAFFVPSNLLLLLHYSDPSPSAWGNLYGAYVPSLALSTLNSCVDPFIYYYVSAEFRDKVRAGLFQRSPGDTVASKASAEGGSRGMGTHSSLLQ
UniProt Q7Z309: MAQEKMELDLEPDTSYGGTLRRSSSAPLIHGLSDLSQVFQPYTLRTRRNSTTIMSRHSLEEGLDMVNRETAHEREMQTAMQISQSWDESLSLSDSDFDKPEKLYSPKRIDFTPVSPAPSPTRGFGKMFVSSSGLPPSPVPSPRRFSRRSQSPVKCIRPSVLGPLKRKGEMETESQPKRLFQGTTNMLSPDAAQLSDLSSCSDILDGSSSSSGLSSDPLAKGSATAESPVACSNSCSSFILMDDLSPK
UniProt Q96PZ2, whole entry, looked up: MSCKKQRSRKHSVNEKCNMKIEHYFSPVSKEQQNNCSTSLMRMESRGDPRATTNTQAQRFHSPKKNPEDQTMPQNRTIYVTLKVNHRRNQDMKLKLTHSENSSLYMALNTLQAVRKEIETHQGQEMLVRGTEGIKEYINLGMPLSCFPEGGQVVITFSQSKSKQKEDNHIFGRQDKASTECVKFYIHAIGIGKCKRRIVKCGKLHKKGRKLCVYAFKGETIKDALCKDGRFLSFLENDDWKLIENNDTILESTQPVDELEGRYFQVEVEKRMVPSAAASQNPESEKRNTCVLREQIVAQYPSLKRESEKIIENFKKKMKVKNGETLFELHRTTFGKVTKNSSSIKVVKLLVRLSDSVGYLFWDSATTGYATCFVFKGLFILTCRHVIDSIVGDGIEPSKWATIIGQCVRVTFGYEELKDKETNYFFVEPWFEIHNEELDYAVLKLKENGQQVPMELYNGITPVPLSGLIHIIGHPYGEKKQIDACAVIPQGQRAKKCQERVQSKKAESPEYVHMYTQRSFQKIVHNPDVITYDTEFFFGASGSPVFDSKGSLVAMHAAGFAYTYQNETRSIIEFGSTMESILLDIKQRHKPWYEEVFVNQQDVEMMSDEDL
UniProt Q8IW50: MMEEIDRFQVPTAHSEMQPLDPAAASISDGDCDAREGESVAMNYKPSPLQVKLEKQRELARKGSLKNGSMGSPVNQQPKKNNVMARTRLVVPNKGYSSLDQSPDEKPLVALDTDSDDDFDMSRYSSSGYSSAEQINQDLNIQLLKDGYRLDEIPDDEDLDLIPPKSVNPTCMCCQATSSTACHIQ
UniProt Q96PV7: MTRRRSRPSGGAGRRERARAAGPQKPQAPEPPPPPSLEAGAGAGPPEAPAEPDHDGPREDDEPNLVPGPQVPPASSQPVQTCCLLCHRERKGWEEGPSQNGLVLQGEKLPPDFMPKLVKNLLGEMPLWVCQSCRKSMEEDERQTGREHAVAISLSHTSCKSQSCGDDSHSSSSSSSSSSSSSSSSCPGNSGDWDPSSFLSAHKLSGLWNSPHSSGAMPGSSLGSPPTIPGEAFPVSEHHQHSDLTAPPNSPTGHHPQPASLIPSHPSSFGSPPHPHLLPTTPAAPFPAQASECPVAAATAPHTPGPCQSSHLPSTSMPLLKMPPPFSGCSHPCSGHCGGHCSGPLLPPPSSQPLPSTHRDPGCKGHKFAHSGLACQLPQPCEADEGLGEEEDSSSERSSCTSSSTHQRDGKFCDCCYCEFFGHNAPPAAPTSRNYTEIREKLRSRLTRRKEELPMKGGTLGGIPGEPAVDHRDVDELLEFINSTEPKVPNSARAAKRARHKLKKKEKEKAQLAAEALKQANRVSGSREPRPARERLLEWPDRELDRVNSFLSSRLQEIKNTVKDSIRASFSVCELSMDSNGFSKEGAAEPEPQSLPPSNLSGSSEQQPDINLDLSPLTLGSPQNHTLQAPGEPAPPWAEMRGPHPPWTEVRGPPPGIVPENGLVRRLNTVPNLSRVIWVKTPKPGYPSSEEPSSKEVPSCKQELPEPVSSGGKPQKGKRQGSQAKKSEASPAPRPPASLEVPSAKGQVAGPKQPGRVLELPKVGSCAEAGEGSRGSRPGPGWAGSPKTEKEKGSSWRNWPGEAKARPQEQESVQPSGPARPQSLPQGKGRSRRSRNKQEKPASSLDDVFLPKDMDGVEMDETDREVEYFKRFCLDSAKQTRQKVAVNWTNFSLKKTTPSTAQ
UniProt Q96EK7: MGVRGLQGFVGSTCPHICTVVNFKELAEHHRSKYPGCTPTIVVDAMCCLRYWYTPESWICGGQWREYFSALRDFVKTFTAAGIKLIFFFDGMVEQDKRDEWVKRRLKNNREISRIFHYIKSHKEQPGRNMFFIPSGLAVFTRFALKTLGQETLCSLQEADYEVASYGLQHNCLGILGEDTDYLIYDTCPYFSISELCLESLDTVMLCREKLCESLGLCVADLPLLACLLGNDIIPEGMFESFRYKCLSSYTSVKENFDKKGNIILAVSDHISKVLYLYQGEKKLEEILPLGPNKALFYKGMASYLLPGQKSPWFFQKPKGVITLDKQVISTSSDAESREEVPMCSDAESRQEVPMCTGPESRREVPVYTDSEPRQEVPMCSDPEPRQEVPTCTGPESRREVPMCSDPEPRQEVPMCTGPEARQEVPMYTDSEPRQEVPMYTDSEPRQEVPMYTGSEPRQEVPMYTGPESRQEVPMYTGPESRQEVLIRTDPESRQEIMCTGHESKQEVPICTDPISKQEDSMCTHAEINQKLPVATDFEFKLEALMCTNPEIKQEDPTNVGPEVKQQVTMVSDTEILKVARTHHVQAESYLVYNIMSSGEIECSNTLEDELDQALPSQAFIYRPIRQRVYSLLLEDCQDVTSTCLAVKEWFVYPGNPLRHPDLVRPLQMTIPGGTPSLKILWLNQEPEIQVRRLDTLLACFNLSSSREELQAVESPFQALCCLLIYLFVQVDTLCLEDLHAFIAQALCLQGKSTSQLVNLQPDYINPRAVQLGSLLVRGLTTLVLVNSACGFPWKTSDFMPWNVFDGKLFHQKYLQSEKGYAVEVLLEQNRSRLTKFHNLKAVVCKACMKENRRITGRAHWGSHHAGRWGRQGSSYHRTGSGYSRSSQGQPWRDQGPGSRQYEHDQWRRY
UniProt Q01469, whole entry, looked up: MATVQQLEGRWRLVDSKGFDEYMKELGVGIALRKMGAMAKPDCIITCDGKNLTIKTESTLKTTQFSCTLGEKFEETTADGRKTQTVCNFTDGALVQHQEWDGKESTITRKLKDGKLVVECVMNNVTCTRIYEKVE
UniProt Q8IWE2: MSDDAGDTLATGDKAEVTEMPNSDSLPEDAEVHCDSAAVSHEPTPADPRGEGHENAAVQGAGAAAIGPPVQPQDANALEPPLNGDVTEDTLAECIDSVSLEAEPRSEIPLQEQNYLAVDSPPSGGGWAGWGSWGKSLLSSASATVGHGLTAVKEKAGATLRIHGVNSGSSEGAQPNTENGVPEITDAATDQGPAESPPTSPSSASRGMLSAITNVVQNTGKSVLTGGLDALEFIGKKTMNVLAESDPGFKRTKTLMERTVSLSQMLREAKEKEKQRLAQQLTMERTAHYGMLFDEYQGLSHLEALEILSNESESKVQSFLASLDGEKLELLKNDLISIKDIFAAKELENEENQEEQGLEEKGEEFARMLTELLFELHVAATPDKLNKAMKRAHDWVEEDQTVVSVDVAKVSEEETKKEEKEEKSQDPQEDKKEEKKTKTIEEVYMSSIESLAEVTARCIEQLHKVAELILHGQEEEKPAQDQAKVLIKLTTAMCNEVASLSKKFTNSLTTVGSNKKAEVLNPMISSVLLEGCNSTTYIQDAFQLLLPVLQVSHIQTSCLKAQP
UniProt O94988: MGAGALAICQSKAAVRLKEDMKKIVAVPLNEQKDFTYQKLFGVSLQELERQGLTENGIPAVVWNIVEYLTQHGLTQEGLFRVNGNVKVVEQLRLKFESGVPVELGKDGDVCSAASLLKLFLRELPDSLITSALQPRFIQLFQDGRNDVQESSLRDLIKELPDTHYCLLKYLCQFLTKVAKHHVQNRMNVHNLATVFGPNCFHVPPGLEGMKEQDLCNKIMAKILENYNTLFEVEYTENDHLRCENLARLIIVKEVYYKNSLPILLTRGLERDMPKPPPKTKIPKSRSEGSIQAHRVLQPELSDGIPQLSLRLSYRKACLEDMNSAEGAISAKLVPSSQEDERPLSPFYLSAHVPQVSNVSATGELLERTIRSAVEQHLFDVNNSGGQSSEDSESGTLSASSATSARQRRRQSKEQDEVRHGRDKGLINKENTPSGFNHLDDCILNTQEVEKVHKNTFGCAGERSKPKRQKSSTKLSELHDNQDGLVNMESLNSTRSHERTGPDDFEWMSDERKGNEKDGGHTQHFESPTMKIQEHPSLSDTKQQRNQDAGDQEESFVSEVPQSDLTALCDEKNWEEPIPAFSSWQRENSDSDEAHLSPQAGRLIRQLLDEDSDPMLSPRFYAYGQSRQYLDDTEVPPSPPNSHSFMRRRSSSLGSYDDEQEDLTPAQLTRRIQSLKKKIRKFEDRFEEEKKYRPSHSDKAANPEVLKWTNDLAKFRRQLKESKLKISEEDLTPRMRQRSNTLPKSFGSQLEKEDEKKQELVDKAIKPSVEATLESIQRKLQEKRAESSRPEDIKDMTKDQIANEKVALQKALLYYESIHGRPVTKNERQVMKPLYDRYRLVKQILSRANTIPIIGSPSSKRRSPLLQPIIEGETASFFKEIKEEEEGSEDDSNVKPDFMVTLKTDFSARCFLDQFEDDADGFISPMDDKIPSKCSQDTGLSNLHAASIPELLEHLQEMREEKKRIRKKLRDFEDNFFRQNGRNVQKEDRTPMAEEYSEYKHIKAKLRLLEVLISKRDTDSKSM

Assays:
Assay in all cases: log2 fold change, soluble protein after heating vs DMSO (PISA); higher = thermal stabilisation; K562 lysate, 10 uM; active = over 0.2 and 3.5 SD of the protein, either way, in both replicates (recomputed)
lapatinib = compound: CS(=O)(=O)CCNCc1ccc(-c2ccc3ncnc(Nc4ccc(OCc5cccc(F)c5)c(Cl)c4)c3c2)o1 [lapatinib]
Outline: (§1)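 Thermal stability, expressed as log-two fold change relative to solvent controls, is given from duplicates. Crude K562 extract in PBS pH 7.4 with 1 mM MgCl2, at 1 mg/mL protein, was treated with 10 μM compound for 30 min and heated in aliquots for 3 min across 48°C-58°C. After pooling, adjustment to 0.5% NP-40 at 4°C and centrifugation at 21,000xg for 90 min, supernatant protein was measured by TMTpro 16plex LC-MS/MS with channel sums equalised.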

crizotinib = compound: C[C@@H](Oc1cc(-c2cnn(C3CCNCC3)c2)cnc1N)c1c(Cl)ccc(F)c1Cl [crizotinib]
Outline: as §1

[1] = compound: C[C@H](C1=CC=C(C=C1)C(=O)NC2=C3C=CNC3=NC=C2)N
Outline: as §1

duvelisib = compound: C[C@H](Nc1ncnc2nc[nH]c12)c1cc2cccc(Cl)c2c(=O)n1-c1ccccc1 [duvelisib]
Outline: as §1

gandotinib = compound: Cc1cc(Nc2cc(CN3CCOCC3)c3nc(C)c(Cc4ccc(Cl)cc4F)n3n2)n[nH]1 [gandotinib]
Outline: as §1

doramapimod = compound: Cc1ccc(-n2nc(C(C)(C)C)cc2NC(=O)Nc2ccc(OCCN3CCOCC3)c3ccccc23)cc1 [doramapimod]
Outline: as §1

[2] = compound: Cc1cccc(CC(=O)N2CCc3c2ccc(-c2cn(C)c4ncnc(N)c24)c3F)n1
Outline: as §1

dasatinib = compound: Cc1nc(Nc2ncc(C(=O)Nc3c(C)cccc3Cl)s2)cc(N2CCN(CCO)CC2)n1 [dasatinib]
Outline: as §1

[3] = compound: Cn1cc(-c2ccc3c(c2)CCN3C(=O)Cc2cccc(C(F)(F)F)c2)c2c(N)ncnc21
Outline: as §1

quisinostat = compound: Cn1cc(CNCC2CCN(c3ncc(C(=O)NO)cn3)CC2)c2ccccc21 [quisinostat]
Outline: as §1

[4] = compound: NC(=O)Nc1cc(-c2cccc(F)c2)sc1C(=O)N[C@H]1CCCNC1
Outline: as §1

[5] = compound: NC(=O)c1cnc(N[C@@H]2CCCC[C@@H]2N)nc1Nc1cccc(-n2nccn2)c1
Outline: as §1

[6] = compound: NC1(c2ccc(-c3nc4ccn5c(=O)[nH]nc5c4cc3-c3ccccc3)cc2)CCC1
Outline: as §1

tozasertib = compound: Cc1cc(Nc2cc(N3CCN(C)CC3)nc(Sc3ccc(NC(=O)C4CC4)cc3)n2)n[nH]1 [tozasertib]
Outline: as §1

nilotinib = compound: Cc1cn(-c2cc(NC(=O)c3ccc(C)c(Nc4nccc(-c5cccnc5)n4)c3)cc(C(F)(F)F)c2)cn1 [nilotinib]
Outline: as §1

[7] = compound: Cc1nc(Nc2n[nH]c3c2CN(C(=O)N[C@H](CN(C)C)c2ccccc2)C3(C)C)c2sccc2n1
Outline: as §1

[8] = compound: Cc1ncc(-c2ccnc(Nc3ccc(S(C)(=O)=O)cc3)n2)n1C(C)C
Outline: as §1

tipifarnib = compound: Cn1cncc1[C@@](N)(c1ccc(Cl)cc1)c1ccc2c(c1)c(-c1cccc(Cl)c1)cc(=O)n2C [tipifarnib]
Outline: as §1

pictilisib = compound: CS(=O)(=O)N1CCN(Cc2cc3nc(-c4cccc5[nH]ncc45)nc(N4CCOCC4)c3s2)CC1 [pictilisib]
Outline: as §1

bafetinib = compound: Cc1ccc(NC(=O)c2ccc(CN3CC[C@H](N(C)C)C3)c(C(F)(F)F)c2)cc1Nc1nccc(-c2cncnc2)n1 [bafetinib]
Outline: as §1

Target | log2 fold change (lapatinib) | log2 fold change (crizotinib) | log2 fold change [1] | log2 fold change (duvelisib) | log2 fold change (gandotinib) | log2 fold change (doramapimod) | log2 fold change [2] | log2 fold change (dasatinib) | log2 fold change [3] | log2 fold change (quisinostat) | log2 fold change [4] | log2 fold change [5] | log2 fold change [6] | log2 fold change (tozasertib) | log2 fold change (nilotinib) | log2 fold change [7] | log2 fold change [8] | log2 fold change (tipifarnib) | log2 fold change (pictilisib) | log2 fold change (bafetinib)
EXTL3 (UniProt O43909) | inactive: -0.264 | inactive: -0.07 | inactive: 0.035 | inactive: 0.067 | inactive: 0.031 | inactive: 0.009 | inactive: 0.089 | inactive: 0.021 | inactive: 0.101 | inactive: 0.037 | inactive: -0.045 | inactive: -0.134 | inactive: -0.067 |  |  |  |  |  |  | 
ETV6 (UniProt P41212) | inactive: 0.014 | inactive: 0.084 | inactive: -0.133 | inactive: -0.209 | inactive: -0.116 | inactive: -0.087 | inactive: -0.011 | inactive: 0.067 | inactive: 0.038 | inactive: -0.166 | inactive: 0.194 | inactive: 0.001 |  | inactive: 0.054 | inactive: 0.091 | inactive: -0.187 | inactive: -0.054 | inactive: 0.186 |  | 
FAM192A (UniProt Q9GZU8) | inactive: 0.011 | inactive: 0.041 | inactive: 0.013 | inactive: -0.012 | inactive: 0.051 | inactive: 0.029 | inactive: 0.022 | inactive: 0.084 | inactive: 0.028 | inactive: 0 | inactive: 0.008 | inactive: 0.008 | inactive: 0.029 | inactive: 0.069 | inactive: -0.009 | inactive: -0.004 | inactive: -0.025 | inactive: 0.023 | inactive: 0.014 | inactive: -0.034
FAM117B (UniProt Q6P1L5) | inactive: -0.021 | inactive: -0.039 | inactive: 0.001 | inactive: 0.143 | inactive: 0.209 | inactive: -0.024 | inactive: 0.147 | inactive: -0.073 | inactive: -0.28 | inactive: -0.046 | inactive: 0.09 | inactive: 0.074 | inactive: 0.148 |  | inactive: -0.067 | inactive: -0.044 | inactive: -0.054 | inactive: -0.088 |  | 
F2RL3 (UniProt Q96RI0) | inactive: -0.147 |  | inactive: -0.048 | inactive: -0.059 | inactive: -0.106 |  | inactive: 0.155 | inactive: -0.023 | inactive: 0.039 |  |  | inactive: 0.049 | inactive: -0.053 |  | inactive: 0.153 | inactive: -0.007 | inactive: -0.022 | inactive: -0.145 |  | 
FAM241A (UniProt Q8N8J7) | inactive: 0.112 | inactive: 0.013 | inactive: -0.083 | inactive: 0.011 | inactive: -0.054 | inactive: 0.082 | inactive: 0.223 | inactive: 0.064 | inactive: -0.004 | inactive: 0.009 | inactive: -0.028 | inactive: 0.036 | inactive: -0.068 | inactive: 0.059 |  |  |  |  | inactive: 0.127 | inactive: -0.027
FAM122B isoform 3 (UniProt Q7Z309) | inactive: 0.06 | inactive: -0.011 | inactive: -0.085 | inactive: -0.396 | inactive: 0.233 | inactive: -0.019 | inactive: -0.329 | inactive: -0.091 | inactive: 0.037 | inactive: -0.004 | inactive: -0.029 | inactive: 0.042 | inactive: -0.183 | inactive: -0.067 |  |  |  |  | inactive: -0.036 | inactive: 0.035
ESRRA (UniProt P11474) | inactive: 0.026 | inactive: -0.025 | active: 0.444 | inactive: 0.088 | inactive: -0.115 | inactive: -0.028 | inactive: -0.149 | inactive: 0.061 | inactive: -0.096 | inactive: -0.038 | inactive: 0.158 | inactive: -0.016 | inactive: 0.016 | inactive: 0.088 | inactive: -0.121 | inactive: 0.016 | inactive: 0.035 | inactive: 0.008 | inactive: -0.049 | inactive: 0.052
FAM111A (UniProt Q96PZ2) | inactive: 0.223 | inactive: -0.01 |  | inactive: 0.03 |  | inactive: -0.163 |  | inactive: -0.097 | inactive: 0.015 | inactive: 0.18 | inactive: 0.039 | inactive: 0.035 | inactive: -0.037 | inactive: -0.02 |  |  |  |  |  | 
EXOC8 (UniProt Q8IYI6) | inactive: -0.006 | inactive: -0.047 | inactive: -0.008 | inactive: -0.039 | inactive: -0.134 | inactive: 0.002 | inactive: -0.008 | inactive: -0.044 | inactive: -0.007 | inactive: 0.021 | inactive: 0.025 | inactive: 0.023 | inactive: -0.048 | inactive: -0.041 | inactive: 0.015 | inactive: -0.017 | inactive: -0.011 | inactive: -0.014 | inactive: -0.034 | inactive: -0.056
ETFB (UniProt P38117) | inactive: 0.004 | inactive: 0.041 | inactive: -0.103 | inactive: 0.04 | inactive: 0.077 | inactive: -0.013 | inactive: 0.099 | inactive: -0.003 | inactive: -0.023 | inactive: 0.081 | inactive: -0.041 | inactive: 0.011 | inactive: -0.004 | inactive: 0.021 | inactive: -0.003 | inactive: -0.017 | inactive: -0.015 | inactive: 0.024 | inactive: 0.006 | inactive: 0.036
FAM219A (UniProt Q8IW50) | inactive: 0.004 | inactive: 0.242 | inactive: -0.088 | inactive: 0.012 | inactive: 0.058 | inactive: -0.235 | inactive: 0.067 | inactive: 0.003 | inactive: -0.005 | inactive: 0.372 | inactive: -0.01 | inactive: -0.006 | inactive: 0.152 | inactive: -0.112 |  |  |  |  | inactive: 0.04 | inactive: -0.084
FAM193B (UniProt Q96PV7) | inactive: 0.126 | inactive: -0.047 | inactive: -0.176 |  | inactive: 0.021 | inactive: 0.072 | inactive: 0.266 |  |  | inactive: 0.382 | inactive: -0.025 | inactive: 0.048 | inactive: 0.007 |  |  |  |  |  |  | 
FAM120B (UniProt Q96EK7) | inactive: 0.041 | inactive: -0.021 | inactive: -0.018 | inactive: -0.021 | inactive: -0.051 | inactive: 0.021 | inactive: 0.045 | inactive: -0.033 | inactive: 0.017 | inactive: -0.062 | inactive: 0.015 | inactive: -0.029 | inactive: -0.048 | inactive: -0.064 | inactive: -0.067 | inactive: -0.017 | inactive: -0.008 | inactive: 0.05 | inactive: -0.012 | inactive: -0.045
FABP5 (UniProt Q01469) | inactive: 0.06 | inactive: 0.003 | inactive: 0.046 | inactive: -0.047 | inactive: 0.032 | inactive: 0.044 | inactive: -0.014 | inactive: 0.072 | inactive: 0.006 | inactive: 0.141 | inactive: -0.087 | inactive: -0.009 | inactive: 0.023 | inactive: 0.097 | inactive: 0.071 | inactive: 0.048 | inactive: 0.026 | inactive: 0.012 | inactive: 0.011 | inactive: 0.145
FAM185A (UniProt Q8N0U4) | inactive: -0.038 | inactive: 0.031 | inactive: -0.058 | inactive: -0.079 | inactive: 0.019 | inactive: 0.116 | inactive: -0.014 | inactive: -0.099 | inactive: -0.027 | inactive: -0.001 | inactive: 0 | inactive: -0.028 | inactive: -0.14 |  |  |  |  |  | inactive: -0.047 | inactive: 0.014
FAM177A1 isoform 2 (UniProt Q8N128) | inactive: -0.031 | inactive: -0.022 | inactive: 0.055 | inactive: -0.011 | inactive: -0.028 | inactive: -0.089 | inactive: 0.114 | inactive: 0.017 | inactive: 0.012 | inactive: 0.035 | inactive: 0.025 | inactive: -0.002 | inactive: -0.044 |  | inactive: 0.015 | inactive: 0.013 | inactive: -0.066 | inactive: 0.007 | inactive: 0.018 | inactive: -0.036
FAM114A1 (UniProt Q8IWE2) | inactive: 0.049 |  | inactive: -0.065 | inactive: -0.096 | inactive: 0.252 |  | inactive: 0.057 | inactive: -0.016 | inactive: -0.009 |  |  | inactive: 0.016 | inactive: 0.029 | inactive: -0.039 |  |  |  |  | inactive: -0.13 | inactive: -0.038
FADD (UniProt Q13158) | inactive: -0.004 | inactive: -0.031 | inactive: -0.001 | inactive: 0.021 | inactive: -0.004 | inactive: -0.003 | inactive: 0.042 | inactive: 0.002 | inactive: 0.003 | inactive: -0.008 | inactive: 0.022 | inactive: 0.029 | inactive: -0.031 | inactive: 0.049 | inactive: -0.02 | inactive: -0.038 | inactive: -0.027 | inactive: -0.03 | inactive: 0 | inactive: -0.109
FAM120A, A0A494C0Y9 |  |  |  | inactive: 0.11 |  |  |  | inactive: -0.061 | inactive: -0.145 |  |  |  | inactive: 0.071 |  |  |  |  |  |  | 
FAM13A (UniProt O94988) |  | inactive: -0.064 |  | inactive: 0.18 |  | inactive: -0.018 |  | inactive: 0.193 | inactive: -0.088 | inactive: -0.141 | inactive: -0.016 |  |  |  |  |  |  |  |  | 

Copied from above for reference:
Target | log2 fold change (lapatinib) | log2 fold change (crizotinib) | log2 fold change [1] | log2 fold change (duvelisib) | log2 fold change (gandotinib) | log2 fold change (doramapimod) | log2 fold change [2] | log2 fold change (dasatinib) | log2 fold change [3] | log2 fold change (quisinostat) | log2 fold change [4] | log2 fold change [5] | log2 fold change [6] | log2 fold change (tozasertib) | log2 fold change (nilotinib) | log2 fold change [7] | log2 fold change [8] | log2 fold change (tipifarnib) | log2 fold change (pictilisib) | log2 fold change (bafetinib)
FAM185A (UniProt Q8N0U4) | inactive: -0.038 | inactive: 0.031 | inactive: -0.058 | inactive: -0.079 | inactive: 0.019 | inactive: 0.116 | inactive: -0.014 | inactive: -0.099 | inactive: -0.027 | inactive: -0.001 | inactive: 0 | inactive: -0.028 | inactive: -0.14 |  |  |  |  |  | inactive: -0.047 | inactive: 0.014
FAM177A1 isoform 2 (UniProt Q8N128) | inactive: -0.031 | inactive: -0.022 | inactive: 0.055 | inactive: -0.011 | inactive: -0.028 | inactive: -0.089 | inactive: 0.114 | inactive: 0.017 | inactive: 0.012 | inactive: 0.035 | inactive: 0.025 | inactive: -0.002 | inactive: -0.044 |  | inactive: 0.015 | inactive: 0.013 | inactive: -0.066 | inactive: 0.007 | inactive: 0.018 | inactive: -0.036
